# PubChem BioAssay AID1645883 (National Center for Advancing Translational Sciences (NCATS), 2021)
# By UniProt entry, the sequences of proteins in these tests, tags left out. Where a name states a change or a piece, a line headed by the entry shows the natural chain unless it says otherwise.
# UniProt O95398: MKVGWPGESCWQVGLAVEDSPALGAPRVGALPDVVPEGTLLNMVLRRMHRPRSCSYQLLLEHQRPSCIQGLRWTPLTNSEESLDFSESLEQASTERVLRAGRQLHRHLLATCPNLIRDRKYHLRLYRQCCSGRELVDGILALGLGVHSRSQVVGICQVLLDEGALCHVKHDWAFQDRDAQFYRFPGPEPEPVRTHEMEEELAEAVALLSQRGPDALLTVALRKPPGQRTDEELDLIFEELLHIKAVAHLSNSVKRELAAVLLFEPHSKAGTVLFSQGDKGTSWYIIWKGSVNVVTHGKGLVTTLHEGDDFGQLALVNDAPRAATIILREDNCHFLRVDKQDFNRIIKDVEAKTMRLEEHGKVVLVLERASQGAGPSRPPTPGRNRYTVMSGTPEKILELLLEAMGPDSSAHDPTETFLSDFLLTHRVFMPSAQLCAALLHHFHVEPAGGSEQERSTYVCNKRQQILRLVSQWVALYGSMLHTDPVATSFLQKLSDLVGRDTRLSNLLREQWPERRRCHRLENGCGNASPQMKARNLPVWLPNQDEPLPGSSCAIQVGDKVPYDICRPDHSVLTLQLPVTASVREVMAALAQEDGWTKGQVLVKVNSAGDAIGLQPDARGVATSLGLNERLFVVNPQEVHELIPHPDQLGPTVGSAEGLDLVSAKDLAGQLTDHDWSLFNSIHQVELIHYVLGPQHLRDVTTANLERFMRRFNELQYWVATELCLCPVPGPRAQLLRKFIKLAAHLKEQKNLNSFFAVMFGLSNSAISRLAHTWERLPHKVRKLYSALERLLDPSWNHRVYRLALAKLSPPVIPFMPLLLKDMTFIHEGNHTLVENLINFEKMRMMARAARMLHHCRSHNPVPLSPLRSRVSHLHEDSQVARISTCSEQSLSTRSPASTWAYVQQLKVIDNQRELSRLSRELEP
# Values joined by “and” are separate entries in the source; they are usually repeats but may differ in a detail not shown here. Equal values may be shown once. This list holds what a sample rich in hits left over. Inconclusive results are not listed. Active and inactive are the calls of the source. Calls follow the shape of the dose curve; as a rule, active = well fitted activation curve with a large enough effect; inconclusive = small, poorly fitted or top-dose-only effect; inactive = no such curve, though single readings can be large or run the other way.
# Target: Rap guanine nucleotide exchange factor 3 (Homo sapiens) (UniProt O95398)
# Assay: Validation qHTS for agonist of cAMP-regulated guanine nucleotide exchange factor 3 (EPAC1); also: nearly all actives have a fitted effect of over 70% in size
# Conditions: EPAC1 Rap1b BODIPY-GDP exchange, fluorescence; active compounds read high; percent of cAMP control response
# Text: Assay Provider (PI): Xiaodong Cheng Ph.D.
# The University of Texas Medical Branch, […], TX
# In multi-cellular eukaryotic organisms, the effects of cAMP are transduced by two ubiquitously-expressed intracellular cAMP receptors, the classic protein kinase A/cAMP-dependent protein kinase (PKA/cAPK) and the more recently discovered exchange protein directly activated by cAMP/cAMP-regulated guanine nucleotide exchange factor (EPAC/cAMP-GEF). Both PKA and EPAC are ubiquitously expressed in all tissues, and an increase in intracellular cAMP levels will lead to the activation of both PKA and EPAC. Therefore, careful dissections of the individual role and relative contribution of EPAC and PKA within the overall cAMP signaling in various model systems are critical for further elucidating the mechanism of cAMP signaling. To date no EPAC-specific antagonists and agonist, as well as isoform-specific agonists have been reported, and developing EPAC-specific pharmacological probes to determine the physiological functions that EPAC play in the overall cAMP-mediated signaling remains a major challenge within the research field. […]
# This qHTS will be used to screen the Molecular Libraries Small Molecule Repository (MLSMR) as a concentration-titration series using the NCGC unique quantitative screening (qHTS) platform to find activators for EPAC1. […] Activators are identified by monitoring the change in fluorescence signal as the exchanged free BODIPY-GDP has a reduced fluorescence compared to Rap1-bound BODIPY-GDP. […]
# Briefly, three uL of reagents (100 nM EPAC1, 250 nM RAP1B-BODIPY-GDP, 50 uM GDP) were dispensed into a 1536-well Greiner black solid-bottom medium binding assay plate. […] The assay plates were read at 5 minute intervals for 30 minutes in the ViewLux plate reader using 480nm excitation and 540nm emission filters. […]
# % is scaled to controls: 0 for no effect and ±100 for the full control effect.
row,SMILES,max response
1,Nc1ccc(N)c([N+](=O)[O-])c1,inactive: -8.35%
2,Cc1c(C(=O)NN2CCCCC2)nn(-c2ccc(Cl)cc2Cl)c1-c1ccc(I)cc1,inactive: 19.4%
3,Cc1cccc(CCN2CCC(C(=O)c3ccc(NS(C)(=O)=O)cc3)CC2)n1,inactive: 6.94% and inactive: -5.71% and inactive: -21.4%
